This is an account of results in paper PMC3296735.

Holding throughout (assay): FRET or BRET; BRET^2 saturation curves in CHO cells: 0.5 µg RLuc-tagged construct with 0.5–3 µg GFP-tagged construct cDNA, DeepBlueC 5 µM, about 100,000 cells per well in DPBS with aprotinin; fitted to a single binding site equation
For orientation: BRET reads energy transfer from a luciferase to a nearby fluorophore.

The target of test [1] is T1, human GIPR fused at its C-terminus to Renilla luciferase (RLuc) or GFP (BRET constructs) (human), P48546.
T1 chain: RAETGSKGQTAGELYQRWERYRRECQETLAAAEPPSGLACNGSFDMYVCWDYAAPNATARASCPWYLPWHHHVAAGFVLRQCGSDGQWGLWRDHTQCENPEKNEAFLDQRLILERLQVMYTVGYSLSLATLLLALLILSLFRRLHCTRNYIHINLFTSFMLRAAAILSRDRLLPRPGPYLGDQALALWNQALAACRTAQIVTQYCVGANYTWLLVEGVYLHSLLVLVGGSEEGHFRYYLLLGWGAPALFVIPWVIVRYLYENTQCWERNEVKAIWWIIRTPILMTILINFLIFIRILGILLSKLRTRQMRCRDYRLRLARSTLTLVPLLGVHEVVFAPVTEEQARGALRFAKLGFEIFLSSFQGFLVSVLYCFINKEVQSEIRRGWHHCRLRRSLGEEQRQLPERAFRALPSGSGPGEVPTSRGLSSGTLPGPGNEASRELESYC
Conditions: remark: other sources report otherwise.

For test [2], the target named is T2, human GLP1R fused at its C-terminus to GFP or Renilla luciferase (RLuc) (BRET constructs) (human), P43220.
T2 chain: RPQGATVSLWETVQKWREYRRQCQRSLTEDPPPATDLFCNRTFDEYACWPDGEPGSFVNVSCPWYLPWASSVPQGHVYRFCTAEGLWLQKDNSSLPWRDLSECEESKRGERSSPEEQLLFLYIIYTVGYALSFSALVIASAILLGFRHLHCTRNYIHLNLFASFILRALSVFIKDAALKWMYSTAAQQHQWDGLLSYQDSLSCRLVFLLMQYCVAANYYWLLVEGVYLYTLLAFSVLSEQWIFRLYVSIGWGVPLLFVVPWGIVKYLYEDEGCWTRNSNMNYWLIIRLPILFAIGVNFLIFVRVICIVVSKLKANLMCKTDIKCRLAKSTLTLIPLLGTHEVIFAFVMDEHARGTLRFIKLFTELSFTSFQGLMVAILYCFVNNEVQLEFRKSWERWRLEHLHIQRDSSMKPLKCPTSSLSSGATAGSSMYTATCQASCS
Particulars: remark: other sources report otherwise.

Test [3] addresses T3, human GIPR fused at its C-terminus to Renilla luciferase (RLuc) or GFP (BRET constructs) (human) (UniProt P48546).
T3 sequence: T1 chain

Test [4] concerns the target human GLP1R fused at its C-terminus to GFP or Renilla luciferase (RLuc) (BRET constructs) (human) (UniProt P43220).

Results are given in words; binding and its absence hold for the method and conditions named. Binding seen in cells or lysates may run through a third protein. Some binding calls cover weakened binding; strength is not graded here. Sequences can lack the tags named with a protein.

B1: human GLP1R fused at its C-terminus to GFP or Renilla luciferase (RLuc) (BRET constructs), P43220 24-463 (receptor)
chain: T2 chain
On to B1, for which the binding entry in test [1] and in test [2] was “binds” throughout.

B2: human GIPR fused at its C-terminus to Renilla luciferase (RLuc) or GFP (BRET constructs) (receptor, UniProt P48546 22-466)
chain: T1 chain
Regarding B2, in test [3], the binding result is on record as “binds”.

B3: GFP-tagged hyperpolarization-activated channel (HCN2-GFP) (protein, UniProt O88703 1-863)
chain: MDARGGGGRPGDSPGTTPAPGPPPPPPPPAPPQPQPPPAPPPNPTTPSHPESADEPGPRARLCSRDSACTPGAAKGGANGECGRGEPQCSPEGPARGPKVSFSCRGAASGPSAAEEAGSEEAGPAGEPRGSQASFLQRQFGALLQPGVNKFSLRMFGSQKAVEREQERVKSAGAWIIHPYSDFRFYWDFTMLLFMVGNLIIIPVGITFFKDETTAPWIVFNVVSDTFFLMDLVLNFRTGIVIEDNTEIILDPEKIKKKYLRTWFVVDFVSSIPVDYIFLIVEKGIDSEVYKTARALRIVRFTKILSLLRLLRLSRLIRYIHQWEEIFHMTYDLASAVMRICNLISMMLLLCHWDGCLQFLVPMLQDFPSDCWVSINNMVNHSWSELYSFALFKAMSHMLCIGYGRQAPESMTDIWLTMLSMIVGATCYAMFIGHATALIQSLDSSRRQYQEKYKQVEQYMSFHKLPADFRQKIHDYYEHRYQGKMFDEDSILGELNGPLREEIVNFNCRKLVASMPLFANADPNFVTAMLTKLKFEVFQPGDYIIREGTIGKKMYFIQHGVVSVLTKGNKEMKLSDGSYFGEICLLTRGRRTASVRADTYCRLYSLSVDNFNEVLEEYPMMRRAFETVAIDRLDRIGKKNSILLHKVQHDLSSGVFNNQENAIIQEIVKYDREMVQQAELGQRVGLFPPPPPPQVTSAIATLQQAVAMSFCPQVARPLVGPLALGSPRLVRRAPPGPLPPAASPGPPAASPPAAPSSPRAPRTSPYGVPGSPATRVGPALPARRLSRASRPLSASQPSLPHGVPAPSPAASARPASSSTPRLGPAPTARTAAPSPDRRDSASPGAASGLDPLDSARSRLSSNL
On to B3, for which the binding result in test [3] and in test [4] was “no binding” throughout.
